Reference: paper PMC6123713, “Adenylate kinase potentiates the capsular polysaccharide by modulating Cps2D in Streptococcus pneumoniae D39” (Experimental & Molecular Medicine, 2018)
Results are given in words; binding and its absence hold for the method and conditions named. In cells and extracts the contact can be indirect.

B1: GST-SpAdK (Streptococcus pneumoniae adenylate kinase, GST-tagged) (enzyme)
chain: MNLLIMGLPGAGKGTQAAKIVEQFHVAHISTGDMFRAAMANQTEMGVLAKSYIDKGELVPDEVTNGIVKERLSQDDIKETGFLLDGYPRTIEQAHALDKTLAELGIELEGIINIEVNPDSLLERLSGRIIHRVTGETFHKVFNPPVDYKEEDYYQREDDKPETVKRRLDVNIAQGEPIIAHYRAKGLVHDIEGNQDINDVFSDIEKVLTNLK
notes: adenylate kinase of Streptococcus pneumoniae (SpAdK); also called glutathione S-transferase (GST)-SpAdK; pGST-ADK; source: recombinant, purified; plasmid pGST-ADK (E. coli plasmid pGST-parallel 2); cloning and purification in the Supplementary Information
B2: Cps2D, endogenous (enzyme, UniProt Q9ZII6 1-226)
chain: MPTLEISQAKLDFVKKAEEYYNSLCTNLQLSGDGLKVFSITSVKLGEGKSTTSTNIAWAFARAGYKTLLIDGDIRNSVMLGVFKARDKITGLTEFLSGTTDLSQGLCDTNIENLFVIQAGSVSPNPTALLQRKNFSTMLETLRKYFDYIIVDTAPVGVVIDAAIITRKCDASILVTEAGEINRRDIQKAKEQLEHTGKPFLGVVLNKFDTSVDKYGSYGDYGKNKK

Biological target: AdhE, endogenous (Streptococcus pneumoniae D39 (endogenous in D39 lysate))
Assay: co-IP; S. pneumoniae D39 WT lysate (100 µg) with antibodies against SpAdK, Cps2D or AdhE (negative control), Protein A/G PLUS Agarose, 4 °C; western blotting; no exogenous Mg-ATP added

Binder | binding
B1 | no binding
B2 | no binding
